“Also recorded” adds a separate entry of the source. Part of at least one peptide drawing is inferred or uncertain, most often the ends. No end group written: not given here.
Key:
[1] = test system: currents evoked by serum from a Rasmussen's encephalitis patient, fetal mouse cortical neurons; assay: Block of whole cell currents evoked by serum from a Rasmussen's encephalitis patient; format: cell-based
Description: To examine functional consequences of antibody binding to glutamate receptors, electrophysiological methods were used to record whole cell currents from mouse cortical neurons in culture. Neuronal cultures from fetal (E14-16) mouse cortical and hippocampal structures were prepared on poly-L-lysine-coated 35 mm "FALCON" dishes according to G. Skeen et al., 44 Molec. Pharmacol. 443 (1993), hereby incorporated by reference. Cultures were fed every other day using a growth medium consisting of DMEM, 10% horse serum, 30 mM glucose, and 0.5 mM glutamine. Arabinosylcytosine (ARA-C) was added for 1 day during the first week in culture to suppress growth of non-neuronal cells. Electrophysiological experiments were performed on 2-5 week old cultures at room temperature. External solution consisted of 145 mM NaCl, 1.5 mM KCl, 1 mM CaCl2, 1 mM MgCl2, 10 mM Na-HEPES, 10 mM glucose, 30 mM sucrose at pH 7.4, 320 mOsm. Internal solution consisted of 153 mM CsCl, 10 mM Cs-HEPES, 4 mM MgCl2, 5 mM EGTA at pH 7.35, 300 mOsm. Solutions were designed for measurement of predominantly sodium inward currents and to block NMDA receptor currents when neurons are voltage clamped at -75 mV. […] To block other currents, 0.2-1 μM tetrodotoxin (TTX), 10 μM picrotoxin, 10 nM strychnine were added to the external solution. External solution was perfused continuously at about 2 ml/min. […]

[2] = test system: anti-GluR3 antibody-evoked currents, mouse cortical neurons in culture; assay: Block of anti-GluR3 antibody-evoked whole cell currents; format: cell-based; conditions: CNQX 40 μM; MK-801 10 μM; peptides 0.5 mg/ml incubated with serum or IgG for 15 minutes

NEYERFVPFSDQQISNDSSSSENR [GluR3B]
blockage of currents evoked by serum from a Rasmussen's encephalitis patient [1]: blocking; also recorded: blocks currents evoked by serum from a Rasmussen's encephalitis patient | blockage of anti-GluR3 antibody-evoked currents [2]: blocked the antibody-evoked currents; also recorded: rapid, reversible, and voltage independent

— patent US6010854A, “Autoantibodies to neurotransmitter receptors” (University of Utah Research Foundation, priority 1997, dated 2000)
